The record followed here is the supplement of paper PMC12819154, “High-throughput peptide-centric local stability assay extends protein–ligand identification to membrane proteins, tissues and bacteria” (Nature Structural & Molecular Biology, 2025).

Chains of the proteins cited; added tags and fusions are not shown. Lines headed by an entry give the natural chain unless they say otherwise; changes in a name come on top.
UniProt P32662: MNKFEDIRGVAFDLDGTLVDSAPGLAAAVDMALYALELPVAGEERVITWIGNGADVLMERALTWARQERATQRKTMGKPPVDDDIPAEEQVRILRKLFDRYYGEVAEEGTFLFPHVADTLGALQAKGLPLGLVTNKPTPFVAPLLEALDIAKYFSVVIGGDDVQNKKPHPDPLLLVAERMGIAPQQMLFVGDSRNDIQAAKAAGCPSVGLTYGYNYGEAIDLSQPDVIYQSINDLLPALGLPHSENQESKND
UniProt P27828: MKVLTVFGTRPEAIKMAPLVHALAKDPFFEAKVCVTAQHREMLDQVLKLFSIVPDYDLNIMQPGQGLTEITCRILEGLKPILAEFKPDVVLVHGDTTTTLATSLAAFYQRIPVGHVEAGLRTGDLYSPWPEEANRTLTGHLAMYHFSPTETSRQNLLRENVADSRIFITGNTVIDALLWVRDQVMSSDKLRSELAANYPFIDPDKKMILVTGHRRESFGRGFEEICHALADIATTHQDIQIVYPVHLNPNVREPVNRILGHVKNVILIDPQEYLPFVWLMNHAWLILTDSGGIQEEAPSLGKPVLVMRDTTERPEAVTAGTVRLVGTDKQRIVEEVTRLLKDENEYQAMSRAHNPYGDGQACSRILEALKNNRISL
UniProt P33634: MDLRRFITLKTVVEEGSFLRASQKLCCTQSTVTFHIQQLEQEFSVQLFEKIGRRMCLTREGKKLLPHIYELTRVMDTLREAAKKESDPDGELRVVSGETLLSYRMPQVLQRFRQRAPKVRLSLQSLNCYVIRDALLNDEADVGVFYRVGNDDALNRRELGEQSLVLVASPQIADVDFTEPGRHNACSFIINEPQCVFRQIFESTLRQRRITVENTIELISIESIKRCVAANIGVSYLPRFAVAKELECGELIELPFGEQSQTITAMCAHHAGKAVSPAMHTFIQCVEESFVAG
UniProt P31142: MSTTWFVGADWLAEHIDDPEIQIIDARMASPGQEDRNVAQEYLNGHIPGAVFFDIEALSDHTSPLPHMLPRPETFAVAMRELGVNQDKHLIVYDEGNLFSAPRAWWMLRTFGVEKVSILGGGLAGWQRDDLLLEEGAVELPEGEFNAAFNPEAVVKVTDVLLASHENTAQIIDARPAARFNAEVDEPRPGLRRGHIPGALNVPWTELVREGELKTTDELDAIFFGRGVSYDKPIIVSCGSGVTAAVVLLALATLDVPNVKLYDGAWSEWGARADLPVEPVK
UniProt P33013: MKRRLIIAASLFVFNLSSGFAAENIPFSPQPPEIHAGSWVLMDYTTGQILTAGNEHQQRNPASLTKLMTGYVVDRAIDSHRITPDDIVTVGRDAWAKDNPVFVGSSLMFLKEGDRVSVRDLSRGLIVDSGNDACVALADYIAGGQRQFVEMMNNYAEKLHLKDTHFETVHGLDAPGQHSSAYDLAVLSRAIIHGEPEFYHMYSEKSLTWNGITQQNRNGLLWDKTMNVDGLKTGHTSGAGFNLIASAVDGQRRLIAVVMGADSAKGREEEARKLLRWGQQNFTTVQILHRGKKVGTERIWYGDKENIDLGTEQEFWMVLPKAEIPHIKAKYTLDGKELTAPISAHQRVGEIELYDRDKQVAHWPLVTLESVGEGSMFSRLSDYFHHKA
UniProt P27836: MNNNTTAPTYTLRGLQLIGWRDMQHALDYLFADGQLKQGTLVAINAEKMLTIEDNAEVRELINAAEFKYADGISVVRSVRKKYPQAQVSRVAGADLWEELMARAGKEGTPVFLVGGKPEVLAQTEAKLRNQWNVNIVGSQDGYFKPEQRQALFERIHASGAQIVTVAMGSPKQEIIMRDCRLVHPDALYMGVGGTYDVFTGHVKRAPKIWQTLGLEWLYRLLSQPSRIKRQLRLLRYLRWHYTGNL
UniProt P27302: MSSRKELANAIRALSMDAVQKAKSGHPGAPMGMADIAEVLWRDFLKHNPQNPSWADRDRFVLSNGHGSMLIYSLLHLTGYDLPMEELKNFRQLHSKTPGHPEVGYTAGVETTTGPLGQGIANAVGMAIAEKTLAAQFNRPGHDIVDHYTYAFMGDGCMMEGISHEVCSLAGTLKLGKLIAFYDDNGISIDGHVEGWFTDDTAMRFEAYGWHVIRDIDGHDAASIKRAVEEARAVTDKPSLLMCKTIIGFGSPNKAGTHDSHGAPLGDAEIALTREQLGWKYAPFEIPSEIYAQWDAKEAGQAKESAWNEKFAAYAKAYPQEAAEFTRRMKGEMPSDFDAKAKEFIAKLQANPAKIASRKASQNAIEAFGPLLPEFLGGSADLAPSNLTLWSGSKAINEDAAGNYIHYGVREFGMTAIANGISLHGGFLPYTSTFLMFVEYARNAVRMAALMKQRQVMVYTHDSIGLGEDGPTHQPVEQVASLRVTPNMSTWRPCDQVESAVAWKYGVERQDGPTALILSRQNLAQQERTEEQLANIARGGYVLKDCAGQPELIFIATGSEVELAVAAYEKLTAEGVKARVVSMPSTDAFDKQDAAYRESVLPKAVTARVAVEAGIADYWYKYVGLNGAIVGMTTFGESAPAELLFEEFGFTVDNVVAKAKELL
UniProt P27128: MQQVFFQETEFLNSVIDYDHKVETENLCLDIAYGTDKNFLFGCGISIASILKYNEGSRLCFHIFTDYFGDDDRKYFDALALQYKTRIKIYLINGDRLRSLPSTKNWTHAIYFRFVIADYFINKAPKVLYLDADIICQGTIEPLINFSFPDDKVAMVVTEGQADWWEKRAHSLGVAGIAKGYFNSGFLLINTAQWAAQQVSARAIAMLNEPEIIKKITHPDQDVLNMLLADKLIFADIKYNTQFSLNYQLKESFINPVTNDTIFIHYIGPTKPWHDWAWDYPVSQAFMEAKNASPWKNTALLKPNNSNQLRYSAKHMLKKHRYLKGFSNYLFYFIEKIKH
UniProt P32176, whole entry: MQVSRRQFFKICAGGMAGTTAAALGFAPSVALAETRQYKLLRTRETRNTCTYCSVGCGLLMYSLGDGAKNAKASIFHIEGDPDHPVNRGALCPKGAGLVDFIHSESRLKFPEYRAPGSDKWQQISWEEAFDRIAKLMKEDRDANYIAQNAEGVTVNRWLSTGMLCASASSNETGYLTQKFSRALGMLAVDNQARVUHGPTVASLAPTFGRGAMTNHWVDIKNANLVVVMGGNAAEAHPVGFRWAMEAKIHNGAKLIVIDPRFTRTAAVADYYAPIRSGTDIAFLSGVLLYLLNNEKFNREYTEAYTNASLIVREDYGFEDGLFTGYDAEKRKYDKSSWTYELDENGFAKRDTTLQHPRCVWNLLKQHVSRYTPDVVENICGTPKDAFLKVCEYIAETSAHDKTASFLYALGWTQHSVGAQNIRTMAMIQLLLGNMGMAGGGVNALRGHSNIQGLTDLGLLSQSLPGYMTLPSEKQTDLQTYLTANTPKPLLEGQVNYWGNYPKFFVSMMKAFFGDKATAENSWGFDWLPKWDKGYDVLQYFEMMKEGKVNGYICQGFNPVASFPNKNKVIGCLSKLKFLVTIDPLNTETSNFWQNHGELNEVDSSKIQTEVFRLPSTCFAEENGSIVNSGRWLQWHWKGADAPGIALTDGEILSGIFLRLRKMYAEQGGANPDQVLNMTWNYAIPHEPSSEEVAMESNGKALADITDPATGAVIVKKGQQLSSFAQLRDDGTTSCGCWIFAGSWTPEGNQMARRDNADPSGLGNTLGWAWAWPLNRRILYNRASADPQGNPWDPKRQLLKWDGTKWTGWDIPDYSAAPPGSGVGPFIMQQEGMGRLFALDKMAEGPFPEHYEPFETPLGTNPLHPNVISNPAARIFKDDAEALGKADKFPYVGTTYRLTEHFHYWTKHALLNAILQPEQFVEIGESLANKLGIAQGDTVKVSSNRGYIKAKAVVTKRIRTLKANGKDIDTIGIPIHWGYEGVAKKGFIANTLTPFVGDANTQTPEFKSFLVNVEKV
UniProt P30863: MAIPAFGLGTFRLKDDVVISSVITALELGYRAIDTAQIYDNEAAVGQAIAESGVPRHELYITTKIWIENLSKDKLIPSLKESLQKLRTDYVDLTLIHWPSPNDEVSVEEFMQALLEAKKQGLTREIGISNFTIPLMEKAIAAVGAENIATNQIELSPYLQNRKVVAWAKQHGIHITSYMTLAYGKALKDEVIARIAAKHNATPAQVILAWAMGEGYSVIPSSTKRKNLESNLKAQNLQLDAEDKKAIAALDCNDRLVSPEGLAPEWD
UniProt P31665: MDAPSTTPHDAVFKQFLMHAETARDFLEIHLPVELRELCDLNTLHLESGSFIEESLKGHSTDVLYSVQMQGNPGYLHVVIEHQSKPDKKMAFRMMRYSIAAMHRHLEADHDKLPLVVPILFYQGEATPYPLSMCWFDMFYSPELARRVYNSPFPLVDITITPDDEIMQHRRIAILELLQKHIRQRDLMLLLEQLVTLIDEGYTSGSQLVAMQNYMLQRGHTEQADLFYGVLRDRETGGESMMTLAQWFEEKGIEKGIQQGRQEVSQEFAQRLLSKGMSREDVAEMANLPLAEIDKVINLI
UniProt P33029: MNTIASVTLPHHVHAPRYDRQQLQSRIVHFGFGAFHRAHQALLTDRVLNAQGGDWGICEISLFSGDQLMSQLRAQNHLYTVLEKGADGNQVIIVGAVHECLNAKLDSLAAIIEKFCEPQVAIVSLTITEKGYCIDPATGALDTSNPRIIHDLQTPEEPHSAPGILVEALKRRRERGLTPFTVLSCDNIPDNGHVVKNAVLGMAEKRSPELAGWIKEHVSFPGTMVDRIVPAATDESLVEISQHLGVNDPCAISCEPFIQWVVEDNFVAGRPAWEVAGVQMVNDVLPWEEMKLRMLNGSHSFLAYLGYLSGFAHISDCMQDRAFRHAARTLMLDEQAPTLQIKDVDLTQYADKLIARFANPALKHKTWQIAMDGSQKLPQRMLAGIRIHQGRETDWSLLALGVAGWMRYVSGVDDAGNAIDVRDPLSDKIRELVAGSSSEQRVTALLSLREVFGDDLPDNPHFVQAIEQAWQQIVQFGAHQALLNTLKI
UniProt P25728: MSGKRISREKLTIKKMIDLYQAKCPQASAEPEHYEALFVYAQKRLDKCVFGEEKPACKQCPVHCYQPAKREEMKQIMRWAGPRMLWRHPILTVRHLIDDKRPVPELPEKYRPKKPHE
UniProt P32125: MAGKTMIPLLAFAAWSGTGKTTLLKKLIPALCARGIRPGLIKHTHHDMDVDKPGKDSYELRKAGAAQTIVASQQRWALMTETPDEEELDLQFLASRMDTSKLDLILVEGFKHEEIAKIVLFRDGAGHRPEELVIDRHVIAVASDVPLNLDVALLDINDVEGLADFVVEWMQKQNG
UniProt P30748: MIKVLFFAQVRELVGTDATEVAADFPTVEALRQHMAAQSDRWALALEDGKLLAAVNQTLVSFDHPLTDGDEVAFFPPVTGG
UniProt P27303: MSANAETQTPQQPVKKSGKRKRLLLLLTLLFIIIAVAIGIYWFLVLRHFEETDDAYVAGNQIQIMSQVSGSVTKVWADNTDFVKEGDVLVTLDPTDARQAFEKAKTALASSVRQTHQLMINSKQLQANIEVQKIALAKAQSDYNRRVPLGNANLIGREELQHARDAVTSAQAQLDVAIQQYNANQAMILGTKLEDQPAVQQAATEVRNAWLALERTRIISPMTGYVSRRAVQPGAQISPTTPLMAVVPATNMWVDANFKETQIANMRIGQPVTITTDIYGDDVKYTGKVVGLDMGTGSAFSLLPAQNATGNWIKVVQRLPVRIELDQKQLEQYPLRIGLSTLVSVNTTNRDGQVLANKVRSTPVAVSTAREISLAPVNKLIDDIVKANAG
UniProt P30176: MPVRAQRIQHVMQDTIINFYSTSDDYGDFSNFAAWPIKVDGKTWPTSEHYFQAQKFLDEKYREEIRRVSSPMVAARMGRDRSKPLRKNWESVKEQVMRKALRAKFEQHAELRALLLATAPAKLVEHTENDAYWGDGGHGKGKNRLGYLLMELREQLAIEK
UniProt P28722: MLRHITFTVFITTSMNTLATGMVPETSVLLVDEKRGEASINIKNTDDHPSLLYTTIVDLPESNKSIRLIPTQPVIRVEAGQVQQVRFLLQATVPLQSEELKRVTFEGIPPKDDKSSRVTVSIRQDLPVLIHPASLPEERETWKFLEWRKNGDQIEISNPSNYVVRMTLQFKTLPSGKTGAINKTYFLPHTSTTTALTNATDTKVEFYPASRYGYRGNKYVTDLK
UniProt P32143: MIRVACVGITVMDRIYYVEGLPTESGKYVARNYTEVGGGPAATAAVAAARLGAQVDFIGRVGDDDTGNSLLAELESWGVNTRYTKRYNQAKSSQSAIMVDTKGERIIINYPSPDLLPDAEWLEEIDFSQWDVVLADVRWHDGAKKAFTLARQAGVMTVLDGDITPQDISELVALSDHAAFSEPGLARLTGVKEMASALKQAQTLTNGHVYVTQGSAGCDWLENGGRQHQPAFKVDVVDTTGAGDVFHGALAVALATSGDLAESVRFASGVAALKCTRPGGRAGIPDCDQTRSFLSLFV
UniProt P30859: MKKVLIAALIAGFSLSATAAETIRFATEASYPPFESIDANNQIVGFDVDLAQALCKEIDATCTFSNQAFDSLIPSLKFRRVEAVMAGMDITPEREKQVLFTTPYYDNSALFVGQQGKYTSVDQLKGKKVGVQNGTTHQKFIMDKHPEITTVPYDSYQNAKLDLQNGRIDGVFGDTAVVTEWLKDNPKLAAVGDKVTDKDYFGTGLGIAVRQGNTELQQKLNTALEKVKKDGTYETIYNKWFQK

The other results are listed elsewhere or left out. Small differences around the control level are noise.

Compound in this assay: CC1(C)S[C@@H]2[C@H](NC(=O)[C@H](N)c3ccccc3)C(=O)N2[C@H]1C(=O)O [ampicillin]
As to the kind of experiment: log2 fold change of tryptic peptide abundance, ligand vs vehicle (limited proteolysis) (log2 ratio); higher = more trypsin-susceptible (destabilized). The settings on record: ligand concentration: 10 uM; sample: E. coli crude lysate.
With “UniProt P33014 (peptide sequence: KLDVVTQVCPFPLIEAK, peptide start residue: 5)”, the log2 fold change is 0.0783. As for “UniProt P32662 (peptide sequence: TMGKPPVDDDIPAEEQVR, peptide start residue: 75)”, the figure is 0.139; as for “UniProt P28305 (peptide sequence: LQDACQR, peptide start residue: 46)”, 0.614. Regarding “UniProt P25397 (peptide sequence: NAMSIANVER, peptide start residue: 61)”, the log2 fold change worked out at 0.341.

On to “UniProt P27828 (peptide sequence: SELAANYPFIDPDKK, peptide start residue: 192)”, for which the log2 fold change came out at 0.158. As for “UniProt P24232 (peptide sequence: QLVDLGVK, peptide start residue: 374)”, the figure is 0.316; as for “UniProt P33634 (peptide sequence: TVVEEGSFLR, peptide start residue: 11)”, -0.0922. As for “UniProt P31142 (peptide sequence: ELGVNQDKHLIVYDEGNLFSAPR, peptide start residue: 81)”, the figure is 0.345; as for “UniProt P33013 (peptide sequence: TMNVDGLK, peptide start residue: 225)”, -0.343; as for “UniProt P27836 (peptide sequence: MLTIEDNAEVR, peptide start residue: 49)”, 0.208. For the target “UniProt P27302 (peptide sequence: RMKGEMPSDFDAK, peptide start residue: 328)”, the log2 fold change is -1.14.

“UniProt P25534 (peptide sequence: KAPGVTLHCPDR, peptide start residue: 121)”: the log2 fold change is -0.628. As for “UniProt P32718 (peptide sequence: ETLVAMTQK, peptide start residue: 257)”, the figure is -0.277; as for “UniProt P27128 (peptide sequence: KITHPDQDVLNMLLADK, peptide start residue: 215)”, 1.19; as for “UniProt P27833 (peptide sequence: ALIERAEIIREK, peptide start residue: 198)”, -0.296.

As to “UniProt P28249 (peptide sequence: HNWQGQAHVEMTDTR, peptide start residue: 446)”, the log2 fold change stood at 0.539. As for “UniProt P28861 (peptide sequence: RPGHMTAEHYW, peptide start residue: 238)”, the figure is 0.156; as for “UniProt P31446 (peptide sequence: GLLAGIKGEK, peptide start residue: 54)”, 0.249. As to “UniProt P32176 (peptide sequence: DTTLQHPR, peptide start residue: 351)”, the log2 fold change came to 0.466. As for “UniProt P26459 (peptide sequence: YAPDMNHVTAAQYQAAMR, peptide start residue: 360)”, the figure is -0.37; as for “UniProt P30863 (peptide sequence: KNLESNLK, peptide start residue: 226)”, 0.0662. As for “UniProt P31665 (peptide sequence: QEVSQEFAQR, peptide start residue: 262)”, the figure is -0.151.

With “UniProt P25888 (peptide sequence: ELAAQIGENVRDYSK, peptide start residue: 86)”, the log2 fold change is -0.558.

Take “UniProt P33358 (peptide sequence: LFNDADIDR, peptide start residue: 41)”: the log2 fold change was -0.239. As for “UniProt P24202 (peptide sequence: VITSGQLVYK, peptide start residue: 47)”, the figure is 0.111.

Consider “UniProt P33029 (peptide sequence: AQNHLYTVLEK, peptide start residue: 74)”, for which the log2 fold change came out at 0.336.

With “UniProt P25728 (peptide sequence: QCPVHCYQPAKR, peptide start residue: 59)”, the log2 fold change was -0.528.

For “UniProt P32125 (peptide sequence: KAGAAQTIVASQQR, peptide start residue: 62)”, the log2 fold change was 0.276. As for “UniProt P25516 (peptide sequence: KTLGLTGEEK, peptide start residue: 823)”, the figure is 0.365; as for “UniProt P30748 (peptide sequence: WALALEDGK, peptide start residue: 42)”, 0.181; as for “UniProt P27303 (peptide sequence: ETQIANMR, peptide start residue: 260)”, 0.234.

For the target “UniProt P30176 (peptide sequence: AKFEQHAELR, peptide start residue: 103)”, the log2 fold change was -0.306. As for “UniProt P28722 (peptide sequence: VEAGQVQQVR, peptide start residue: 77)”, the figure is -0.334; as for “UniProt P32143 (peptide sequence: AGIPDCDQTR, peptide start residue: 282)”, 0.245; as for “UniProt P30859 (peptide sequence: RVEAVMAGMDITPER, peptide start residue: 80)”, -0.615.
